From PMC7819943, “Rice protein-binding microarrays: a tool to detect cis-acting elements near promoter regions in rice”
Some of the results follow.

Each sequence was assayed against T1, OsSMF1 (Oryza sativa, UniProt Q6ZLB0 1-436) (assay: protein-binding microarray (RPBM); PBS, 2% BSA, 51.3 ng/ul salmon testes DNA, 50 uM zinc acetate, 200 nM TF, 25 C, 1 h; high values mean tight binding). Conditions: protein: recombinant; tags: N-terminal polyhistidine and DsRed monomer fusion (pET32a); chain copies: 2; label: CyDye5-dUTP incorporated in the synthesized complementary strand; 3' TTTTT single-stranded linker to array surface; dsDNA, one strand shown.
T1 sequence: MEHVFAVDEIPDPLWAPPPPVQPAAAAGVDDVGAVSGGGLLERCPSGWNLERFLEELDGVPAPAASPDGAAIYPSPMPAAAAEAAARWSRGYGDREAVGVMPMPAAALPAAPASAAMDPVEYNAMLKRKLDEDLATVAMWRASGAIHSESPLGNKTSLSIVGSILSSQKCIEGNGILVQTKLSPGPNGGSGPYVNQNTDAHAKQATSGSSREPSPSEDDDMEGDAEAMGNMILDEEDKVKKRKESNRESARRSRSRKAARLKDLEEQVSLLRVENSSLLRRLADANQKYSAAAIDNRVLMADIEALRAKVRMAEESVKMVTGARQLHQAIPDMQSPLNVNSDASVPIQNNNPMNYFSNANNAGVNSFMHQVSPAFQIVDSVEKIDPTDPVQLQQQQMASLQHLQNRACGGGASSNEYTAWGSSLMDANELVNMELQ
Outline: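 Ni–NTA purification followed expression in E. coli BL21-CodonPlus of transcription factors fused N-terminally to a polyhistidine tag and DsRed. At 200 nM in PBS with 2% BSA, salmon testes DNA and 50 µM zinc acetate, the protein was incubated for 1 h at 25 °C with a custom Agilent array that had been primer-extended with Cy5-dUTP and blocked with 2% BSA. After washing, the array was read on an Axon 4000B scanner. The binding signal is per-feature fluorescence intensity in arbitrary units.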

Question: How did the binding signal turn out when “TCCGTTGGATAAATGGATGCTCTCATCTAAGTCACCCAGGCGGAGTCACCTAGTGCAG” was run?
Answer: 16100 fluorescence intensity (a.u.)

Question: With “CGTCCGTAGATGCCAGCGGGGCGGCCCGCCGGATGTGGAGCGGAGTCACCTAGTGCAG” as the sequence, how does the binding signal read?
Answer: 4200 fluorescence intensity (a.u.)

Question: How did the binding signal turn out when “GTTAGAAGTTTAGAACTCTCATCCTCTATAGCCGTGTTTACGGAGTCACCTAGTGCAG” was run?
Answer: 3570 fluorescence intensity (a.u.)

Question: “GACAATAGGAAAACGATCATCAATCATGACTATCACTGTTCGGAGTCACCTAGTGCAG” was tested. Which binding signal did it give?
Answer: 3960 fluorescence intensity (a.u.)

Question: With “CCGCCCTCCCCTTATCCCTTGTCGCCGCCGCCGCGTGGCCCGGAGTCACCTAGTGCAG” as the sequence, how does the binding signal read?
Answer: 4430 fluorescence intensity (a.u.)

Question: Which binding signal does the source give for “CTCGGAGTAAGTTCATCACCTTCCTGTAGACTATATTCATCGGAGTCACCTAGTGCAG” here?
Answer: 3360 fluorescence intensity (a.u.)

Question: For “ATGGCTGATTCTGAGTTTACAACAATTATTTAAATACATACGGAGTCACCTAGTGCAG”, which binding signal is on record?
Answer: 3820 fluorescence intensity (a.u.)

Question: Which binding signal does the source give for “AGTATGTATGTTTATTTTAGCTGACGTGGCAATATAGTCACGGAGTCACCTAGTGCAG” here?
Answer: 22700 fluorescence intensity (a.u.)

Question: “CTAATGGGACTGCTGCTACCCTATCTTTAGTCCGGGACTACGGAGTCACCTAGTGCAG” was tested. Which binding signal did it give?
Answer: 3270 fluorescence intensity (a.u.)

Question: “CTGTTTAATTAGTGTCAGCTCCCACGTCTGTTCCGTGCTGCGGAGTCACCTAGTGCAG” was tested. Which binding signal did it give?
Answer: 5650 fluorescence intensity (a.u.)

Question: How did the binding signal turn out when “GGTTCGTCAACAAGGTCAGGGGCGGCGGCCGGGGCGGAGCCGGAGTCACCTAGTGCAG” was run?
Answer: 3530 fluorescence intensity (a.u.)

Question: For “CGTCGCCGACTGTTCATGTCAGCGCGGCTGACGCTGCTTGCGGAGTCACCTAGTGCAG”, which binding signal is on record?
Answer: 5160 fluorescence intensity (a.u.)

Question: How did the binding signal turn out when “TTATTTGGATTATTAAACTAGTTGTTTGTTACTAATAGTTCGGAGTCACCTAGTGCAG” was run?
Answer: 22800 fluorescence intensity (a.u.)

Question: How did the binding signal turn out when “CAAACACGCAATATCAAAGTACACGAGGGGTCTACGTGGACGGAGTCACCTAGTGCAG” was run?
Answer: 6950 fluorescence intensity (a.u.)

Question: Which binding signal does the source give for “GTGTTCCTCAAGGAGCGTTGTCACGCTACAACGTGATGGTCGGAGTCACCTAGTGCAG” here?
Answer: 3840 fluorescence intensity (a.u.)

Question: “TCGTGGTGGTGGTGGTGGTGCAGCTTTTGCTTGCGTGCGACGGAGTCACCTAGTGCAG” was tested. Which binding signal did it give?
Answer: 4450 fluorescence intensity (a.u.)

Question: Which binding signal does the source give for “CACTCTATTCCGTTGTTGCATAAAAGTAAAGATTACGTAACGGAGTCACCTAGTGCAG” here?
Answer: 3760 fluorescence intensity (a.u.)

Question: Which binding signal does the source give for “AGTTGGAGGGCACGGACTCCGGAGGCGTCACCCGCGGGAGCGGAGTCACCTAGTGCAG” here?
Answer: 3580 fluorescence intensity (a.u.)

Question: “TTCTACGCTCTCACGTGGCCCATTGAATTCACCGTGTGGCCGGAGTCACCTAGTGCAG” was tested. Which binding signal did it give?
Answer: 3440 fluorescence intensity (a.u.)

Question: “CCACAGGAGAGGACGCACGTCAAGTGGTCGTCGACGAGACCGGAGTCACCTAGTGCAG” was tested. Which binding signal did it give?
Answer: 3550 fluorescence intensity (a.u.)

Question: How did the binding signal turn out when “TAGCCCGTCACTGATGAGTCATCTGTGACGGGCCTAGCTGCGGAGTCACCTAGTGCAG” was run?
Answer: 11500 fluorescence intensity (a.u.)

Question: Which binding signal does the source give for “ATCATAAATACGTGCAAAATTTCACCATACCAATATTAACCGGAGTCACCTAGTGCAG” here?
Answer: 28500 fluorescence intensity (a.u.)

Question: For “TCTTTGCAAGGATTTTGAACAGTCAGCAGTGCACAAACAACGGAGTCACCTAGTGCAG”, which binding signal is on record?
Answer: 4940 fluorescence intensity (a.u.)

Question: With “GTATGGAGCTCCCTCCTCGCCCGCCTTCCCTCGCTCTCGGCGGAGTCACCTAGTGCAG” as the sequence, how does the binding signal read?
Answer: 23100 fluorescence intensity (a.u.)

Question: Which binding signal does the source give for “TAACTGCGTTGACTGTACCCAGATCAGTTTGCTAAACGTTCGGAGTCACCTAGTGCAG” here?
Answer: 3600 fluorescence intensity (a.u.)

Question: For “GCTACCAGCCCACGTGCCACTACAGTAGCCGTGCCGGCCCCGGAGTCACCTAGTGCAG”, which binding signal is on record?
Answer: 4970 fluorescence intensity (a.u.)

Question: For “AGGAGACGAGAGAGAGAGAGGGGAGGGGAGTGTGATGTGGCGGAGTCACCTAGTGCAG”, which binding signal is on record?
Answer: 8030 fluorescence intensity (a.u.)

Question: For “ATGTAATCTAGAATATGTCATATCCCTCCAAAATCATCTACGGAGTCACCTAGTGCAG”, which binding signal is on record?
Answer: 3600 fluorescence intensity (a.u.)

Question: With “CCTACCAGTTGAGCTATCCACTGTTTCTAGTCAGCATATTCGGAGTCACCTAGTGCAG” as the sequence, how does the binding signal read?
Answer: 4620 fluorescence intensity (a.u.)

Question: How did the binding signal turn out when “ATAAGGGAAGCCGCATCAGAATTTACGATGCCGATAACGGCGGAGTCACCTAGTGCAG” was run?
Answer: 3700 fluorescence intensity (a.u.)

Question: Which binding signal does the source give for “CACTCACAAGAGAGTAAGTGAGCTAGCGAGTCACAGGTTTCGGAGTCACCTAGTGCAG” here?
Answer: 3690 fluorescence intensity (a.u.)

Question: How did the binding signal turn out when “CTAAGTGACACCTCACTCCAACTTTAAGGACCGGCTGTGTCGGAGTCACCTAGTGCAG” was run?
Answer: 5750 fluorescence intensity (a.u.)

Question: With “GTGTCCTCAATTGAATTGACTCAATTCAATGGCTACCATACGGAGTCACCTAGTGCAG” as the sequence, how does the binding signal read?
Answer: 4900 fluorescence intensity (a.u.)

Question: With “CCGGCGGGTGAGAAAAGTTTCGGGCGGGGTCAGCGACGGTCGGAGTCACCTAGTGCAG” as the sequence, how does the binding signal read?
Answer: 3670 fluorescence intensity (a.u.)

Question: “GACCGACTTTGACATCAGTAGAACACTAGTTGCCACATGTCGGAGTCACCTAGTGCAG” was tested. Which binding signal did it give?
Answer: 3450 fluorescence intensity (a.u.)

Question: How did the binding signal turn out when “TCGAAGGATCAAAATCGGATTCGGTGTCAACTTAAGGGACCGGAGTCACCTAGTGCAG” was run?
Answer: 15500 fluorescence intensity (a.u.)

Question: “CAAAACCGCCGGTAACCGCCCTTACCACGGGGTATAGTAACGGAGTCACCTAGTGCAG” was tested. Which binding signal did it give?
Answer: 16600 fluorescence intensity (a.u.)

Question: With “TAAGTCTGGTAAAGTTTTACTGTGCCCACGTAATATCATACGGAGTCACCTAGTGCAG” as the sequence, how does the binding signal read?
Answer: 28600 fluorescence intensity (a.u.)

Question: How did the binding signal turn out when “AACAACAACAACGCATTGCAAAGCAAGGAGAAATCCGAAGCGGAGTCACCTAGTGCAG” was run?
Answer: 14400 fluorescence intensity (a.u.)

Question: “GTGGGTGAAACCTCTTACTACGTGTGTGGTTTAGTTGAAACGGAGTCACCTAGTGCAG” was tested. Which binding signal did it give?
Answer: 24000 fluorescence intensity (a.u.)

Question: For “CCACTCATATGTCAATGACACGTGGGGTCCACACGCGTCTCGGAGTCACCTAGTGCAG”, which binding signal is on record?
Answer: 20600 fluorescence intensity (a.u.)

Question: “TTTTCAAGACGTCAACGCCAACCACGTTGGCATCAACGTCCGGAGTCACCTAGTGCAG” was tested. Which binding signal did it give?
Answer: 6550 fluorescence intensity (a.u.)
